Source: paper PMC9976904

Amino acid sequences for entries named in this document (tags omitted). A change or cut given only in a name is not applied to a line headed by its entry.
UniProt P60842, whole entry: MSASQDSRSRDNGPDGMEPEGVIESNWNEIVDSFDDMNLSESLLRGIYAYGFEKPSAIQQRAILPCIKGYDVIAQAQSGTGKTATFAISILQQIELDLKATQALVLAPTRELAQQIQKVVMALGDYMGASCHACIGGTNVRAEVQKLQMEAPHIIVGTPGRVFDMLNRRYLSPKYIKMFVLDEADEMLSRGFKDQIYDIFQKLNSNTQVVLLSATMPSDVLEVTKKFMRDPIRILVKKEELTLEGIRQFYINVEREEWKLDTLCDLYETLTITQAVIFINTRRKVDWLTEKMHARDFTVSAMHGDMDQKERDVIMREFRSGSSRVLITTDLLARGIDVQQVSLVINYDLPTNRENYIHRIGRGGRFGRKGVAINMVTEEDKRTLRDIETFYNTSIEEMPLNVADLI

Tests used:
[1] = test system: eIF4G-MC; test: fluorescence anisotropy; conditions: affinity comparable to eIF4H, Kd in figure only; 20 mM HEPES/KOH pH 7.5, 100 mM KCl, 1 mM TCEP, 1% DMSO, 2 mM AMPPNP/MgCl2, 25 C, 60 min; recombinant protein; residues 674-1600; protein details: N-terminal 6xHis-SUMO, cleaved; label: FAM or 5' Dy780
[2] = biological target: eIF4H (UniProt Q15056); test: fluorescence anisotropy; conditions: affinity comparable to eIF4G-MC, Kd in figure only; 20 mM HEPES/KOH pH 7.5, 100 mM KCl, 1 mM TCEP, 1% DMSO, 2 mM AMPPNP/MgCl2, 25 C, 60 min; recombinant …; protein details: N-terminal 6xHis-SUMO, cleaved; label: FAM or 5' Dy780
[3] = biological target: eIF4A1 (human) (UniProt P60842); test: EMSA; conditions: AMPPNP/MgCl2, 50 uM hippuristanol; 20 mM HEPES/KOH pH 7.5, 100 mM KCl, 1 mM TCEP, 1% DMSO, 2 mM AMPPNP/MgCl2, 25 C, 60 min; EMSA gels 6-7% acrylamide-TB, 0.5x TB; recombinant protein; protein details: N-terminal 6xHis-SUMO, cleaved; label: FAM or 5' Dy780

| Sequence | binding result [1] | binding result [2] | binding result [3] |
| --- | --- | --- | --- |
| AGAGAGAGAGAGAGAGAGAG [AG-RNA (20 nt)] | binds | binds | – |
| CAACAACAACAACAACAACA [CAA-RNA (20 nt)] | – | – | binds more weakly |

Construct, isoform or probe ends are uncertain for at least one entry. For part of these data: Weaker means in comparison with the reference protein, sequence or condition of that experiment. For part of these data: At least one verdict was read from the data and is not stated in words by the source.
